{"sequences": {"note": "Amino acid sequences for entries named in this document (tags omitted).", "UniProt P53350, whole entry, looked up": "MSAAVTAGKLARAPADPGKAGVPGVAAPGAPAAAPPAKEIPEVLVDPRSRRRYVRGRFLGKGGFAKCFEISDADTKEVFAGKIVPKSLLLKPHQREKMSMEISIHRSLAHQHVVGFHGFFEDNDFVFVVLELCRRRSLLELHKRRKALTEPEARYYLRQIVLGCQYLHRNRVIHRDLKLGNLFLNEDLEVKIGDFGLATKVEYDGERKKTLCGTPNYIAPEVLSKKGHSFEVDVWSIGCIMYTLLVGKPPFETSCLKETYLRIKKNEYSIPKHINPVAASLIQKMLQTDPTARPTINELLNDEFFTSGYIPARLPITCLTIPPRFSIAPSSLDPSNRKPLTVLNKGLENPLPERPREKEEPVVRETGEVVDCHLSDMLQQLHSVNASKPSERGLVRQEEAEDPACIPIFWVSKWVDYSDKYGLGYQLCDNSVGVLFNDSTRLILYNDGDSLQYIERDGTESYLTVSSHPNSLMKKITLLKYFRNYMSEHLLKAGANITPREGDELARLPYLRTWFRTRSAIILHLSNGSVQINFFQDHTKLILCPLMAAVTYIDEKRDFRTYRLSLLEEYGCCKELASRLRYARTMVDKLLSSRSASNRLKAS"}, "source": "PubChem BioAssay AID720504", "about": "(National Center for Advancing Translational Sciences (NCATS), 2013)", "note": "Screen size: about 360,000 compounds; about 10,000 (2.8%) were called active. The inconclusive results got no clear call from the source; some entries with a clear call stand among them for comparison. Calls follow the shape of the dose curve; as a rule, active = well fitted inhibition curve with a large enough effect; inconclusive = small, poorly fitted or top-dose-only effect; inactive = flat fitted curve, though single readings scatter. Where the call is inconclusive, the potency comes from a doubtful curve fit. % is scaled to controls: 0 for no effect and ±100 for the full control effect; potency is read from the fitted curve at half-maximal effect."}
{"target": "Serine/threonine-protein kinase PLK1 (Homo sapiens) (UniProt P53350)", "assay": "qHTS for Inhibitors of PLK1-PDB (polo-like kinase 1 - polo-box domain): Primary Screen; also: nearly all actives have a fitted effect of over 65% in size; as to max response, negative = inhibition: series mostly up to about 57 µM", "conditions": "Plk1 PBD binding of FITC phosphopeptide, fluorescence polarization"}
{"smiles": "Nc1nc(SCc2cccc(Br)c2)n[nH]1", "Potency": "inconclusive: 26.7 µM [inhibitor, partial curve]"}
{"smiles": "CC(C)OC(=O)CC(=O)CSc1nc(-c2ccc(F)cc2)cc(-c2ccccc2)c1C#N", "Potency": "active: 23.8 µM"}
{"smiles": "COC(=O)[C@@]1(Cc2ccccc2)[C@H]2C(=O)N(C)C(=O)[C@H]2[C@H]2CN=C(SC)N21", "max response, negative = inhibition": "inactive: -0.143%"}
{"smiles": "O=C(NN1C(=O)/C(=C/c2ccc(O)c(O)c2)SC1=S)c1ccccc1", "max response, negative = inhibition": "inactive: 3.2%"}
{"smiles": "Cc1n[nH]c(C)c1N=Nc1ccc(Br)cc1", "max response, negative = inhibition": "inactive: 6.81%"}
{"smiles": "CSc1nc(=S)c2[nH]c(=S)[nH]c2[nH]1", "Potency": "active: 2.67 µM"}
{"smiles": "COc1ccc(CNC(=O)CN(C(=O)CCC(=O)Nc2ccccn2)c2ccc(C)cc2)cc1", "Potency": "inconclusive: 26.7 µM [inhibitor, single point]"}
{"smiles": "O=C(CNC(=O)c1ccccc1F)NCCOc1ccccc1Cl", "Potency": "active: 26.7 µM"}
{"smiles": "Cc1cc(C(=O)Nc2ccc(N3CCCCC3)cc2)no1", "Potency": "inconclusive: 26.7 µM [inhibitor, single point]"}
{"smiles": "CCCn1c(=S)[nH]c2ccc(C(F)(F)F)cc21", "Potency": "active: 10.6 µM"}
{"smiles": "CC(C)Cn1c(SCC(=O)Nc2cccc(S(N)(=O)=O)c2)nc2ccccc2c1=O", "Potency": "inconclusive: 33.6 µM [inhibitor, partial curve]"}
{"smiles": "FC(F)Oc1ccc(NC(=S)N2CCc3ccccc32)cc1", "max response, negative = inhibition": "inactive: -10.7%"}
{"smiles": "CCOC(=O)C1=C(C)NC(=S)NC1c1ccc(-c2cccc(Cl)c2C)o1", "note": "(stereo unspecified)", "Potency": "inconclusive: 29.9 µM [inhibitor, partial curve]"}
{"smiles": "CC(OC(=O)CCN1C(=O)c2cccc([N+](=O)[O-])c2C1=O)C(=O)Nc1cc(Cl)cc(Cl)c1", "note": "(stereo unspecified)", "max response, negative = inhibition": "inactive: -1.78%"}
{"smiles": "CC1(C)Cc2c(C#N)c(N3CCN(C(=O)c4ccccc4)CC3)nc(-c3ccco3)c2CS1", "Potency": "inconclusive: 29.9 µM [inhibitor, partial curve]"}
{"smiles": "O=C(Cn1cc([N+](=O)[O-])ccc1=O)N1CCCc2ccccc21", "max response, negative = inhibition": "inactive: -3.82%"}
{"smiles": "O=C(c1ccc2c(c1)OCO2)N1CCN(c2ccccn2)CC1", "Potency": "active: 21.2 µM"}
{"smiles": "Cc1cc(NS(=O)(=O)c2ccc(NC(=O)c3cc4cc(Br)ccc4oc3=O)cc2)no1", "Potency": "inconclusive: 23.8 µM [inhibitor, single point]"}
{"smiles": "O=C(O)c1cccc(NC(=S)NC(=O)c2ccc(-c3ccc(Cl)cc3)o2)c1", "Potency": "inconclusive: 21.2 µM [inhibitor, partial curve]"}
{"smiles": "CCOC(=O)c1c(NC(=O)c2ccco2)sc2c1CCCC2", "Potency": "active: 26.7 µM"}
{"smiles": "NC(=O)c1cc[n+](CC2=C(C(=O)O)N3C(=O)[C@@H](NC(=O)C(c4ccccc4)S(=O)(=O)[O-])[C@H]3SC2)cc1", "note": "(stereo partly specified)", "Potency": "active: 4.74 µM"}
{"smiles": "O=C(NC(=S)NCCC1=CCCCC1)c1ccccc1Br", "Potency": "inconclusive: 23.8 µM [inhibitor, partial curve]"}
{"smiles": "O=S(=O)(Cc1ccccc1)N1CCCCC1", "Potency": "inconclusive: 33.6 µM [inhibitor, partial curve]"}
{"smiles": "CCCN(C(=O)C1CCCN(c2ncnc3c2nc2n3CCCCC2)C1)c1ccc(F)cc1", "note": "(stereo unspecified)", "Potency": "inconclusive: 23.8 µM [inhibitor, single point]"}
{"smiles": "CC(c1ccccc1)n1cc(C(=O)NCc2cccnc2)nn1", "note": "(stereo unspecified)", "Potency": "inconclusive: 29.9 µM [inhibitor, partial curve]"}
{"smiles": "COc1ccc(C(=O)NCC(=O)OCC(=O)c2c(C)[nH]c3ccccc23)cc1OC", "max response, negative = inhibition": "inactive: -21.1%"}
{"smiles": "Nc1nc(N2CCN(C(=O)c3ccco3)CC2)nc2ccc(Br)cc12", "Potency": "inconclusive: 26.7 µM [inhibitor, single point]"}
{"smiles": "O=C(O)CCc1ccc(-c2ccc(Cl)cc2)o1", "Potency": "inconclusive: 29.9 µM [inhibitor, partial curve]"}
{"smiles": "NCC(O)c1ccc(O)c(O)c1", "note": "(stereo unspecified)", "max response, negative = inhibition": "inactive: 0.698%"}
{"smiles": "C=CCNC(=S)NN(c1ccccc1)c1ccccc1", "max response, negative = inhibition": "inactive: -2.69%"}
{"smiles": "Cc1c(CCC(=O)O)c(=O)oc2cc(OCc3ccccc3Br)ccc12", "max response, negative = inhibition": "inconclusive: -30.1% [inhibitor]"}
{"smiles": "O=S(=O)(CCN1CCN(c2ccccc2O)CC1)c1cc(Cl)ccc1Cl", "max response, negative = inhibition": "inactive: -5.01%"}
{"smiles": "Cc1ccc(C)c(OCC(=O)Nc2ccc(S(=O)(=O)Nc3ccccn3)cc2)c1", "max response, negative = inhibition": "inconclusive: -36.2% [inhibitor]"}
{"smiles": "CC(C)NC(=O)COC(=O)CNC(=O)c1cc(Cl)cc([N+](=O)[O-])c1", "Potency": "active: 29.9 µM"}
{"smiles": "O=CC(O)C1OC(=O)C(O)C1O", "note": "(stereo unspecified)", "Potency": "inconclusive: 23.8 µM [inhibitor, single point]"}
{"smiles": "CCC1=NN2C(=N)/C(=C\\c3cccn3-c3ccc(C)cc3C)C(=O)N=C2S1", "Potency": "inconclusive: 29.9 µM [inhibitor, partial curve]"}
{"smiles": "CCOC(=O)c1ccc2c(c1)nc(SCC(=O)c1ccco1)n2CC", "Potency": "inconclusive: 26.7 µM [inhibitor, single point]"}
{"smiles": "CCN(c1ccccc1C)S(=O)(=O)c1nnc(NC(=O)c2ccco2)s1", "Potency": "inconclusive: 26.7 µM [inhibitor, single point]"}
{"smiles": "CCCCCc1c(O)nc(SCCN2CCOCC2)[nH]c1=O", "Potency": "inconclusive: 23.8 µM [inhibitor, partial curve]"}
{"smiles": "C/C=C(/C)C(=O)OC(C)(C)[C@@H]1Cc2c(ccc3ccc(=O)oc23)O1", "max response, negative = inhibition": "inactive: -14.3%"}
{"smiles": "O=C(O)c1ccc(Cl)cc1NC(=O)C1CCN(S(=O)(=O)c2cccs2)CC1", "Potency": "inconclusive: 59.7 µM [inhibitor, partial curve]"}
{"smiles": "Cc1n[nH]c(=O)c2c(NC(=O)CSc3ccc(Br)cc3)oc(C)c12", "Potency": "inconclusive: 21.2 µM [inhibitor, partial curve]"}
{"smiles": "COC(=O)c1ccc(NC(=O)COC(=O)c2nc3nccc(C)n3n2)cc1", "Potency": "inconclusive: 23.8 µM [inhibitor, single point]"}
{"smiles": "O=C1c2cccnc2C(=O)N1Cc1ccc(S(=O)(=O)NCc2ccco2)s1", "max response, negative = inhibition": "inactive: -9.85%"}
{"smiles": "CCOc1c(Cl)cc(CNCc2ccccn2)cc1OC", "max response, negative = inhibition": "inactive: 1.13%"}
{"smiles": "Fc1ccc(NC(=S)NCCN2CCOCC2)c(F)c1F", "Potency": "inconclusive: 26.7 µM [inhibitor, partial curve]"}
